Results: patent EP4223782A1, “NOVEL T CELL RECEPTORS AND IMMUNE THERAPY USING THE SAME FOR THE TREATMENT OF CANCER” (Max-Delbrück-Centrum für Molekulare Medizin in der …, priority 2022, dated 2023)
At least one peptide structure holds a part that was inferred or is arguable (an end, a ring closure or a residue). Ends that are not written are not given here.

Tested on: ABabDR4 mice
Experiment: peptide immunization of ABabDR4 mice; intracellular IFNy staining of PBLs and IFNy secretion assay of splenocytes after peptide restimulation
Format: in vivo, mouse
Details: after restimulation of peripheral blood-derived T cells with TGFβR2(-1) peptide, ICS for IFNy

Question: Which “CD4+ T cell expansion in immunized mice” value does the source give for VALMSAMTTSSSQKN [VALMSAMTTSSSQKN] here?
Answer: Significant
